US20160152717A1, “METHODS FOR TREATING DRY EYE DISEASE BY ADMINISTERING AN IL-6R ANTAGONIST” (REGENERON PHARMACEUTICALS, INC., priority 2014, published 2016)
Some of these results come from one statement about several compounds together.

System: mouse dry eye model
Details: scopolamine osmotic pump 2 mg/20 g B.W./day; BAC 0.2% topical

CN1[C@@H]2C[C@@H](OC(=O)[C@H](CO)c3ccccc3)C[C@H]1[C@@H]1O[C@@H]12 [scopolamine]
inhibition of tear production: more than 50%
